Drawing on article PMC7860981, “Mitochondrial Enzymes of the Urea Cycle Cluster at the Inner Mitochondrial Membrane” (Frontiers in Physiology, 2020), this text covers binding for two molecules.

Assay [1] deals with T1, carbamylphosphate synthetase 1 (CPS1), endogenous in mouse liver mitochondria (mouse (endogenous in mouse liver mitochondria)) (UniProt Q8C196).
T1 sequence: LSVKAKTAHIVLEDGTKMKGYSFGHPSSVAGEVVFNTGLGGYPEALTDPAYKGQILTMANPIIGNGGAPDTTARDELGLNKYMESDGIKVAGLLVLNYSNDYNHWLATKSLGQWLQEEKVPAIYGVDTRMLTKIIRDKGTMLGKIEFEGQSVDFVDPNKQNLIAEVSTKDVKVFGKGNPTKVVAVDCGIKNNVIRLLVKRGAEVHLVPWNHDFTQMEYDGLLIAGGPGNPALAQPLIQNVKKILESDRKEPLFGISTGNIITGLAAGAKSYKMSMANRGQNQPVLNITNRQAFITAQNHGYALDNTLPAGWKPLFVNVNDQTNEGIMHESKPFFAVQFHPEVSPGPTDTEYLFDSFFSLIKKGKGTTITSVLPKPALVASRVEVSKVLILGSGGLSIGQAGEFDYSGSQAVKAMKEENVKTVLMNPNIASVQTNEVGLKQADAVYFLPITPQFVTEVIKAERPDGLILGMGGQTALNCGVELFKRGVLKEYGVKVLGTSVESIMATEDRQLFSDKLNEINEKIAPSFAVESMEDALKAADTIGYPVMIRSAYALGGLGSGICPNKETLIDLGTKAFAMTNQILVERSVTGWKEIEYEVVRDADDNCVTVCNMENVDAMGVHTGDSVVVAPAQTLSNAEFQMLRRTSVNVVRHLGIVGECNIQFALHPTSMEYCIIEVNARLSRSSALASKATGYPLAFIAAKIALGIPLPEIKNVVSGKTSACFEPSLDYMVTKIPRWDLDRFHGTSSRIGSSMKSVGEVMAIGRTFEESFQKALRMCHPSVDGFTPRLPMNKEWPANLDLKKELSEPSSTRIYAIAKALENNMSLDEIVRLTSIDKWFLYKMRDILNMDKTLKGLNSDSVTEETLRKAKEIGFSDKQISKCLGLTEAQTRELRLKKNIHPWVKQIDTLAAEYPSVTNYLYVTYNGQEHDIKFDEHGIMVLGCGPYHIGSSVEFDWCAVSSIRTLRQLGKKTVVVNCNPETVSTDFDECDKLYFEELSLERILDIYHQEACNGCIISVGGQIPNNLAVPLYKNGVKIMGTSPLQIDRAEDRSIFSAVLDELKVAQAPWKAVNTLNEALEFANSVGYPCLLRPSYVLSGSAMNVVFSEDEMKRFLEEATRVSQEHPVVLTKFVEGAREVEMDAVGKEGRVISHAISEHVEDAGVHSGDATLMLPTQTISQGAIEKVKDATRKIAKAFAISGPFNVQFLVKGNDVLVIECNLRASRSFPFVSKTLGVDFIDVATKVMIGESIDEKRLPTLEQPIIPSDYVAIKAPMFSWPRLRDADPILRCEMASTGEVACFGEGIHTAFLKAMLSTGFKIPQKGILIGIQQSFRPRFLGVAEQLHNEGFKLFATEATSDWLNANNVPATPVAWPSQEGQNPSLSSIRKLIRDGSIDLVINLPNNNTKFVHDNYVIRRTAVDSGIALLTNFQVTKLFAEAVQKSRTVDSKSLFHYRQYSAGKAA
Nature of the assay: co-IP; competition experiment: mitochondrial lysate (2 mg/ml protein) mixed 1:1 (v/v) with mVS, revVS or shVS, added to magnetic beads cross-linked to anti-CPS1 antibodies; immunoblot for NAGS, densitometry of NAGS-M bands. On the technique in general: A western blot detects proteins with antibodies after separation by electrophoresis.

The target of assay [2] is T1, carbamylphosphate synthetase 1 (CPS1), endogenous in mouse liver mitochondria (mouse (endogenous in mouse liver mitochondria)). Nature of the assay: co-IP; mouse liver mitochondrial lysate (PBS, 2% CHAPS; 1 mg/ml protein for anti-OTC and anti-CPS1, 5 mg/ml for anti-NAGS) with magnetic beads cross-linked to antibodies against NAGS, CPS1 or OTC, 20°C for 10 min, five washes with PBS with 0.05% Triton X-100; immunoblot for NAGS and CPS1; non-specific IgG as negative control.

For assay [3], the target named is T2, ornithine transcarbamylase (OTC), endogenous in mouse liver mitochondria (mouse (endogenous in mouse liver mitochondria)) (UniProt P11725).
T2 sequence: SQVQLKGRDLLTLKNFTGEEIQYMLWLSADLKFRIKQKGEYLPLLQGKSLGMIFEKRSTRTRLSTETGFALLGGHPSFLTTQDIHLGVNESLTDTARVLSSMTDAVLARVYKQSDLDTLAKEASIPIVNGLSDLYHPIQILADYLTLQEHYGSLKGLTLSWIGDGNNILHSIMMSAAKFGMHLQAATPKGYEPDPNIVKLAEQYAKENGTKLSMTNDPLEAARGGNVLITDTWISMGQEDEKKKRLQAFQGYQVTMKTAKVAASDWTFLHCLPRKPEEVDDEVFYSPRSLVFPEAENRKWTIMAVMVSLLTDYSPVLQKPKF
The assay is described as above.

The target of assay [4] is N-acetylglutamate synthase (NAGS), endogenous in mouse liver mitochondria (mouse (endogenous in mouse liver mitochondria)). The assay is described as above.

Results are given in words; binding and its absence hold for the method and conditions named. Binding seen in cells or lysates may run through a third protein. Binding can be weak; no strength is given.

For “N-acetylglutamate synthase (NAGS), endogenous in mouse liver mitochondria (enzyme)”, the binding result in assay [1], in assay [2] and in assay [3] was “binds” each time.

B1: carbamylphosphate synthetase 1 (CPS1), endogenous in mouse liver mitochondria (enzyme, UniProt Q8C196 39-1500)
chain: T1 sequence
As to B1, the binding entry in assay [4] was “binds”.
